Laboratory results reported in paper PMC3445557.
These are yes or no findings as the source states them, for the method shown. Binding seen in cells or lysates may run through a third protein. Binding can be weak; no strength is given.

What was measured:
[1] = target: T1, LAT (human (endogenous in Jurkat)) (UniProt O43561); test: co-IP; Jurkat cells transfected with CFP/YFP chimeric ITK constructs, stimulated with anti-CD3ε or isotype control antibodies, lysed; lysates immunoprecipitated with anti-SLP-76 or anti-LAT antibodies; immunoblotted with anti-ITK
T1 sequence: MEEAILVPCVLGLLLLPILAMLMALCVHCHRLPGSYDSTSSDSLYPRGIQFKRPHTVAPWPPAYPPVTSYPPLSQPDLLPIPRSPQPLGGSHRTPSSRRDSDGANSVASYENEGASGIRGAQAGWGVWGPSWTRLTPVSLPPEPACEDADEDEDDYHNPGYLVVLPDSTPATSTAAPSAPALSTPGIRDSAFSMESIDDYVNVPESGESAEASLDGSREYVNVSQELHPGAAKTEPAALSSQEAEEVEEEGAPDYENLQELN

[2] = target: T2, SLP-76 (human (endogenous in Jurkat)) (UniProt Q13094); test: as above
T2 sequence: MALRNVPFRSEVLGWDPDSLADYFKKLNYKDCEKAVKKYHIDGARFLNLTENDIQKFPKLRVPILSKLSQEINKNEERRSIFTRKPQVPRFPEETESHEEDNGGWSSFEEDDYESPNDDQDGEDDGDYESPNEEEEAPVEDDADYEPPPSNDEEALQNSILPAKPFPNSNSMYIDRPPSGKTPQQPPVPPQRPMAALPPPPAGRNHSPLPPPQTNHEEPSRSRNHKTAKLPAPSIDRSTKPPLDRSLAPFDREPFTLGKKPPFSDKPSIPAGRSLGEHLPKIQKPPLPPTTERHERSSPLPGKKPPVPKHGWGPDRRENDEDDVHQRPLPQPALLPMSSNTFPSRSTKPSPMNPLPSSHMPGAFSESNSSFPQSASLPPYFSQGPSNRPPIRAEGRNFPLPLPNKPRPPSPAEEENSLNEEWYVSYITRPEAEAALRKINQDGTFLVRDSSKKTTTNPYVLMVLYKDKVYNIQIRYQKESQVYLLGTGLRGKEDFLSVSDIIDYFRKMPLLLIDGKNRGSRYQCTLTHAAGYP

binding [1]: binds | binding [2]: binds
Substance: F26S-ITK, CFP/YFP chimeric construct (enzyme)
